A weaker result is weaker than the reference pair of the same experiment.
Target: AtARF5-DBD (Arabidopsis thaliana) (UniProt P93024)
Assay: Ni-NTA pull-down with SYBR Gold fluorescence
Settings: residues 1-390

Chains of the proteins cited; added tags and fusions are not shown. Residues count along the entry.
UniProt P93024, 1-390: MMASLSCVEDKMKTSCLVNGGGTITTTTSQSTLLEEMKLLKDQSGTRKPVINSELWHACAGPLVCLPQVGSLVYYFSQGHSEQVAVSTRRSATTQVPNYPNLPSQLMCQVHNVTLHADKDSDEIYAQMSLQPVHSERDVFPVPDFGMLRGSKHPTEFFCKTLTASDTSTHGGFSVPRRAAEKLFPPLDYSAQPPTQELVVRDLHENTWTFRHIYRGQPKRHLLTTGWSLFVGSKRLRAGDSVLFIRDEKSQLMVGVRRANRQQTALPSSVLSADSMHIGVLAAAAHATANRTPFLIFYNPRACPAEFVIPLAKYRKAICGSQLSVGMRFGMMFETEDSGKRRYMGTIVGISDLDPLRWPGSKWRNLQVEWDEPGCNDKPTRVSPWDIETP

Sequence	binding result (significantly below ER7)	also measured
CCGGTAGGTTGTCAACCAAAGGGAGACAACCGGTAGG (double strand) [ER7-1m (ER7-single motif)]		binding result (significantly reduced vs ER7): binds more weakly
CCGGTAGGTTGTCATCCAAAGGATGACAACCGGTAGG (double strand) [ER7-AT]		binding result (lowest binding of the variants): binds more weakly
CCGGTAGGTTGTCGACCAAAGGTCGACAACCGGTAGG (double strand) [ER7-GA]	binds more weakly	
CCGGTAGGTTGTCTCCCAGGGAGACAACCGGTAGG (double strand) [ER5]	binds more weakly	

From paper doi:10.1101/634816
